Experimental findings from the M2OR odorant receptor database are described below.

Only a part is listed here, and it is no random draw. Calls are pooled over several reports, among them a noisy single-well screen. The list shows a part of the results.

Common to all, as to details: stereoisomer not certain
One assay deals with T1, OR52N5 (Homo sapiens) (UniProt Q8NH56).
T1 sequence (whole entry): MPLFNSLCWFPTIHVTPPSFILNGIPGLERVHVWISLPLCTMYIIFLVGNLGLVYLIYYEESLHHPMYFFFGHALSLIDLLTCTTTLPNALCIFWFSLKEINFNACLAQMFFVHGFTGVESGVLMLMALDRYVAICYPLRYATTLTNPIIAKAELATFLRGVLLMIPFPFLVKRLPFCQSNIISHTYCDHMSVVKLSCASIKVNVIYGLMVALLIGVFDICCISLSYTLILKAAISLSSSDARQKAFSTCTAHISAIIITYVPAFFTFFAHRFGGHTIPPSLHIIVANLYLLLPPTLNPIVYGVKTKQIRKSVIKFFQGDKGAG
Put shortly:
(§1)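 Values were gathered from published papers (main text and supplementary material), with extra details requested from the original authors when needed, and checked for typos and inconsistencies. Each receptor–molecule pair is called responsive (active) if the original authors judged the measured signal statistically different from baseline, and non-responsive (inactive) otherwise. Assay methods varied by source, often transient mammalian cell-line luciferase assays. Recorded details include cell line, G-protein, co-transfected protein and tags.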

In the next assay the target is T2, OR56A1 (Homo sapiens) (UniProt Q8NGH5).
T2 sequence (whole entry): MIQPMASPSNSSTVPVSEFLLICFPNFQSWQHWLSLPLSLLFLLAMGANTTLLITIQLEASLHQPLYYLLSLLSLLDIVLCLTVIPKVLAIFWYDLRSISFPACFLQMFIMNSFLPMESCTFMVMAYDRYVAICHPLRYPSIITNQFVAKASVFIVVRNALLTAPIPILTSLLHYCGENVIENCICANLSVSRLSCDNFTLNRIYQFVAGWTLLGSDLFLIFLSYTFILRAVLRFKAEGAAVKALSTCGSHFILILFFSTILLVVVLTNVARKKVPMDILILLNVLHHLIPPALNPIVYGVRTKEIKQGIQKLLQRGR
Put shortly: as §1

The target in a further assay is T3, OR56A4 (Homo sapiens) (UniProt Q8NGH8).
T3 sequence (whole entry): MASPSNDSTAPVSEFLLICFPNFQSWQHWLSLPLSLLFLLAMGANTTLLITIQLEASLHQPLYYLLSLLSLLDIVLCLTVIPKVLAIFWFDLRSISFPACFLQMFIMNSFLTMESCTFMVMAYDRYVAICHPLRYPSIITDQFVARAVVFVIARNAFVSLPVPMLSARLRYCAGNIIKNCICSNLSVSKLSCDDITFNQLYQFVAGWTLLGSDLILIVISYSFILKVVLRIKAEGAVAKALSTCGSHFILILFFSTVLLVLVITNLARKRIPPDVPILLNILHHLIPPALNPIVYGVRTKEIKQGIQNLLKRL
Put shortly: as §1

Another assay has as its target T4, OR56A5 (Homo sapiens) (UniProt P0C7T3).
T4 sequence (whole entry): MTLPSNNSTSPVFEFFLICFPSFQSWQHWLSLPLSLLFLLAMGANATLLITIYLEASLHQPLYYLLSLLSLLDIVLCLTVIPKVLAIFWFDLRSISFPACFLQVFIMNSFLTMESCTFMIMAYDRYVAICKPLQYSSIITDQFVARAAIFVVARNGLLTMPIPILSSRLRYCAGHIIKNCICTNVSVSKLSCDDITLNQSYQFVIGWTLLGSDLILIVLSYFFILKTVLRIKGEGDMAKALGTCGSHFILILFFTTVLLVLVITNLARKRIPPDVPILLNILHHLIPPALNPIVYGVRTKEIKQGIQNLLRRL
In short, it runs like this: as §1

Assay [1] deals with T5, OR5A1.
T5 sequence (whole entry): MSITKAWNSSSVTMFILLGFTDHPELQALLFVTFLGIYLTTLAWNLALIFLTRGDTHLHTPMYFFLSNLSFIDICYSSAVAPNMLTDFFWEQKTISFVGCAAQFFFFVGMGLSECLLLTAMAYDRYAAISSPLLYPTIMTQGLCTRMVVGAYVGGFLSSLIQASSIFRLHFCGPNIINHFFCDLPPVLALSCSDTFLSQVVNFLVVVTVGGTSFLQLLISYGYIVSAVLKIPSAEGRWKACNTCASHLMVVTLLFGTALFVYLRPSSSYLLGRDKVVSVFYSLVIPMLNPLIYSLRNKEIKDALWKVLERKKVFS
In short, it runs like this: as §1

In assay [2] the test system is T6, OR5A1.
T6 sequence (whole entry): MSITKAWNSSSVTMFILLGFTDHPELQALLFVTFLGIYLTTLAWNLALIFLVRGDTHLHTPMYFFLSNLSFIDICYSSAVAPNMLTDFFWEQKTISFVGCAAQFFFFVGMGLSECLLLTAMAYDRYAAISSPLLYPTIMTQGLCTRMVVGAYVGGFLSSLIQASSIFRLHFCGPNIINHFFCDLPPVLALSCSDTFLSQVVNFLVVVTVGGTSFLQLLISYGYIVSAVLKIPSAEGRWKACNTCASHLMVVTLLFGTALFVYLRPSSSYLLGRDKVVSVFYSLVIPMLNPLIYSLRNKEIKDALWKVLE
In short, it runs like this: as §1
The source holds these as a separate data set.

Assay [3] has as its system T7, OR5A1.
T7 sequence (whole entry): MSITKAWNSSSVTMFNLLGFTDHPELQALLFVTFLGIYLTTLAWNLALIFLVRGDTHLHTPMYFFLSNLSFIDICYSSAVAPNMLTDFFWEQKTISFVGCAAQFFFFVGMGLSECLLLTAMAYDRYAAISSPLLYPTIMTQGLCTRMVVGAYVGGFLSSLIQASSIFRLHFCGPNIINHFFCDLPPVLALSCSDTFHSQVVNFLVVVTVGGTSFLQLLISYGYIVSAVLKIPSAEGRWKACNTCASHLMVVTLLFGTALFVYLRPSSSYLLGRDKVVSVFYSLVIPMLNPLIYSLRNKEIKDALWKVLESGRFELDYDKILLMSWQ
In short, it runs like this: as §1
The source holds these as a separate data set.

The next assay concerns the target T8, OR5A2 (Homo sapiens) (UniProt Q8NGI9).
T8 sequence (whole entry): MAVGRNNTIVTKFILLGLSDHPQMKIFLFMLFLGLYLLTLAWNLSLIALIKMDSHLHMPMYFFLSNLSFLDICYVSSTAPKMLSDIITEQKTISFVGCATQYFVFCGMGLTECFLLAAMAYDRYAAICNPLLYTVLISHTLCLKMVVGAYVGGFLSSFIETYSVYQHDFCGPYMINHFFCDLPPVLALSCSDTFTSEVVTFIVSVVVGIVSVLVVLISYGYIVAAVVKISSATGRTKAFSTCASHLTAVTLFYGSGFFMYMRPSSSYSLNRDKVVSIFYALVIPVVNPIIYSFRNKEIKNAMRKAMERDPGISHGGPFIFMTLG
Put shortly: as §1

The next assay concerns the target T9, OR5AC2 (Homo sapiens) (UniProt Q9NZP5).
T9 sequence (whole entry): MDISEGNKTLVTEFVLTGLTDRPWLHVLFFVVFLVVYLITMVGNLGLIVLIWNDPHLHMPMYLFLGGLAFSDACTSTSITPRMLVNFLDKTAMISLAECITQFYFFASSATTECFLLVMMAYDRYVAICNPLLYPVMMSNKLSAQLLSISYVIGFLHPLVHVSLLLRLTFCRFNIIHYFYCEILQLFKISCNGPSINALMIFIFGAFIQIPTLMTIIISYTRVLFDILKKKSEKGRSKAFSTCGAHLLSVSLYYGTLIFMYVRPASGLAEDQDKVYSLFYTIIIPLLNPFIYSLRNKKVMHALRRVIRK
Put shortly:
as §1

In the next assay the target is T10, OR5AK2 (Homo sapiens) (UniProt Q8NH90).
T10 sequence (whole entry): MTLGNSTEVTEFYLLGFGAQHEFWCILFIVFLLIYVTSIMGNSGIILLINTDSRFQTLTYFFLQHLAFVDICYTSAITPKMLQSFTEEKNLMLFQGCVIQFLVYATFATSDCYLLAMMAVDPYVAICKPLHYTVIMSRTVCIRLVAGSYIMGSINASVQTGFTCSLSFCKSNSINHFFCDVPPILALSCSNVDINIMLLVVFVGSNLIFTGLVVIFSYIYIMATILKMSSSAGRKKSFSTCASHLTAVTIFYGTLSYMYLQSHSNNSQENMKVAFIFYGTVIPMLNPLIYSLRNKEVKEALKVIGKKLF
Put shortly:
as §1

In the case of `CC(=O)OC(C)(C)C1CC=C(C)CC1` (stereo not drawn), the “odorant receptor agonist call” value with OR52N5 (Homo sapiens) was “active”. Besides, the “odorant receptor agonist call” value in the assay with OR56A1 (Homo sapiens), with OR56A4 (Homo sapiens), with OR56A5 (Homo sapiens), with OR5A1 [1], in the assay on OR5A1 [2] and with OR5A1 [3] was “inactive” each time. The “odorant receptor agonist call” value with OR5A2 (Homo sapiens), with OR5AC2 (Homo sapiens) and with OR5AK2 (Homo sapiens) was “inactive” each time.
Regarding `CC1=CCC(C(C)(C)O)CC1` (stereo not drawn), the “odorant receptor agonist call” value in the assay with OR52N5 (Homo sapiens) was “active”. The “odorant receptor agonist call” value with OR56A1 (Homo sapiens), in the assay with OR56A4 (Homo sapiens), in the assay with OR56A5 (Homo sapiens), in the assay on OR5A1 [1], with OR5A1 [2] and in the assay on OR5A1 [3] was “inactive” throughout. Besides, the “odorant receptor agonist call” value with OR5A2 (Homo sapiens) and with OR5AK2 (Homo sapiens) was “inactive” each time.
In the case of `CC(C)C=O`, the “odorant receptor agonist call” value with OR52N5 (Homo sapiens), with OR56A1 (Homo sapiens), with OR56A4 (Homo sapiens), with OR56A5 (Homo sapiens), with OR5A1 [1] and in the assay with OR5A1 [2] was “inactive” throughout. Moreover, the “odorant receptor agonist call” value with OR5A1 [3], with OR5A2 (Homo sapiens) and with OR5AK2 (Homo sapiens) was “inactive” in each case.
